The values that follow come from PubChem BioAssay AID445 (National Center for Advancing Translational Sciences (NCATS), 2006).

The other results are listed elsewhere or left out. These are further read-outs of the screen, such as a control signal, another cell line or another target. No call is given for them. Most of these compounds were active or inconclusive in the main read-out, so they are no random draw. Potencies come from curve fits of mixed quality, noted in brackets.

The assay is described as follows: IkB Signaling. As to conditions: ABC-DLBCL IkBa-CBG/CBR dual luciferase ratio (green luciferase fused to IkBa over red control in OCI-Ly3 lymphoma cells), 4 h. Summed up:
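Curves were fitted separately to fusion (green), unfused (red) and ratio luminescence, then classed by r2, magnitude and activity. Cells: OCI-Ly3, 4 h compound plus doxycycline at 37C; 10 uM MG-132 defined full response.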

The mark [1] stands for this setting: measured here: control luc red channel unless noted.

With `CCOc1ccccc1NC(=O)COc1cccc2c(=O)n(CCOC)ccc12`, the AC50 under setting [1] was 0.631 µM [falling, full curve].
The same measure, in the same setting: with `O=C(NCCc1ccc(Cl)cc1)c1ccc2c(c1)N(Cc1ccccc1)CCS2` the figure was 15.8 µM [falling, single point].
The same measure, in the same setting: with `O=C(Nc1ccc2oc(-c3cccnc3)nc2c1)c1ccc(-c2cccc(OC(F)(F)F)c2)o1` the figure was 3.16 µM [falling, full curve]; with `COc1cccc(N2CCN(C(=O)c3ccc(CS(=O)c4cccc(Cl)c4)o3)CC2)c1` (configuration not stated), 31.6 µM [falling, single point].
Still for that read-out and setting: as for `COc1cccc(CNS(=O)(=O)c2cc(Br)cc3c2N(C(C)=O)C(C)C3)c1` (configuration not stated), the figure is 0.1 µM [falling, full curve]; as for `CCOC(=O)c1c(NC(=O)C(F)(OC)C(F)(F)F)sc(C(=O)N2CCCCC2)c1C` (configuration not stated), 31.6 µM [falling, single point]; as for `CC1CCN(c2oc(-c3ccccc3F)nc2C#N)CC1`, 3.16 µM [rising, full curve].
Turning to `COC(=O)c1ccccc1NC(=O)c1nc(S(=O)(=O)Cc2ccccc2F)ncc1Cl`, the AC50 under setting [1] is 3.16 µM [rising, single point].
Regarding `O=C(CSc1nc2c([nH]c3ccccc32)c(=O)n1-c1cccc(Cl)c1)N1CCc2ccccc21`, the concentration at half-maximal activity (AC50) under setting [1] was 25.1 µM [rising, partial curve, poor fit].
On to `COc1cccc(Cc2nc3ccccc3nc2SCC(=O)N2CCCCC2C)c1` (configuration not stated), for which the AC50 under setting [1] was 31.6 µM [falling, single point].
The same measure, in the same setting: as for `CCn1c(=O)cc(SCC(=O)N2CCN(Cc3ccc4c(c3)OCO4)CC2)c2ccccc21`, the figure is 20 µM [falling, partial curve]; as for `Cc1ccc2nc(NCc3ccccc3Cl)c3nnnn3c2c1`, 3.98 µM [rising, partial curve, poor fit]; as for `COc1cccc2cc(C(=O)N3CCc4ccccc4C3)c(=O)oc12`, 0.1 µM [falling, full curve].
On to `Brc1ccccc1-c1nnc(CSc2nnnn2-c2ccccc2)o1`, for which the AC50 under setting [1] was 15.8 µM [falling, partial curve].
For the compound `COc1cccc(C(=O)CN2CCN(S(=O)(=O)c3ccc(Cl)cc3)CC2)c1`, the AC50 under setting [1] is 39.8 µM [falling, single point].
The same measure, in the same setting: as for `O=C(CN1C(=O)CSc2ccc(S(=O)(=O)N3CCCCC3)cc21)NCc1ccc(F)cc1Cl`, the figure is 25.1 µM [falling, partial curve]; as for `O=C(NCc1ccco1)c1ccc2c(c1)N(Cc1ccc(F)cc1)C(=O)c1ccccc1S2=O` (configuration not stated), 12.6 µM [falling, partial curve]; as for `CN(C)c1nc(N)nc(CSc2nc3cc(Cl)ccc3o2)n1`, 39.8 µM [rising, partial curve].
On the same count and under the same terms, as for `CCOc1ccc(NC(=O)Cn2c(CCC(=O)O)ccc2-c2ccc(Cl)cc2)cc1`, the figure is 15.8 µM [falling, partial curve]; as for `CCCN1C(C(=O)c2ccccc2)=C(OC(=O)c2ccc(F)cc2)c2ccccc2S1(=O)=O`, 10 µM [falling, partial curve].
The same measure, in the same setting: with `Cc1ccc(C)c(Cn2c3ccccc3c3cnn(CC(=O)N4CCCCC4)c(=O)c32)c1` the figure was 15.8 µM [falling, partial curve]; with `COc1ccc(Cl)cc1NC(=O)c1cc(S(=O)(=O)N2CCc3ccccc32)cn1C`, 15.8 µM [falling, partial curve].
Regarding `Cc1cccc(-n2c(=O)c3ccccc3n(Cc3ccccc3C#N)c2=O)c1`, under setting [1], the AC50 is 0.1 µM [rising, partial curve].
As for `COc1cc2c(C(=O)N3CCN(c4cccc(C)c4)C(C)C3)cn(CC(C)C)c(=O)c2cc1OC` (configuration not stated), under setting [1], the AC50 is 15.8 µM [falling, partial curve].
Still for that read-out and setting: as for `CC1CN(C(=O)CCC(=O)NCc2cccc(Cl)c2)c2ccccc2S1` (configuration not stated), the figure is 39.8 µM [falling, single point].
Turning to `COc1ccccc1C(=O)N(Cc1nc(-c2cccc(C)c2)no1)C(C)C`, the AC50 under setting [1] was 15.8 µM [falling, partial curve].
Still for that read-out and setting: as for `O=C(NCc1ccccc1)c1nc(S(=O)(=O)Cc2ccc(F)cc2)ncc1Cl`, the figure is 7.94 µM [falling, full curve].
In the case of `Cc1nn(C(C)C(=O)NC2CCC(C)CC2)c(=O)c2c1sc1ccccc12` (configuration not stated), the AC50 under setting [1] is 1.26 µM [falling, full curve].
As for `O=S(=O)(NCCc1csc2nc(-c3ccccc3)nn12)c1cccs1`, under setting [1], the AC50 was 39.8 µM [falling, single point].
`Cc1ccc(OCc2nc(-c3ccc(C(=O)NCCc4ccc(Cl)cc4)cc3)oc2C)cc1`: under setting [1], the AC50 is 25.1 µM [falling, single point].
Turning to `CCCCc1ccc(NC(=O)c2cc(-c3ccc(C)c(F)c3)on2)cc1`, the AC50 under setting [1] is 7.94 µM [falling, partial curve].
Consider `COc1ccc(C2=C(Nc3ccc(Br)c(C)c3)c3ccccc3C2=O)cc1`, for which the AC50 under setting [1] was 12.6 µM [falling, partial curve].
Same read-out and setting: as for `CC(C)Nc1ccc(-c2nc(-c3ccncc3)no2)cc1[N+](=O)[O-]`, the figure is 12.6 µM [falling, partial curve]; as for `COCCn1ccc2c(OCC(=O)Nc3c(C)cc(C)cc3C)cccc2c1=O`, 5.01 µM [rising, full curve, poor fit]; as for `CCCSc1oc(-c2ccco2)nc1S(=O)(=O)c1ccc(Br)cc1`, 12.6 µM [falling, partial curve].
Consider `CC(=O)N1CCc2c(sc3c2c(=O)n(-c2ccc(F)cc2)c(=O)n3Cc2ccc(C#N)cc2)C1`, for which the AC50 under setting [1] is 1.58 µM [falling, single point].
As to `Cn1c(=O)oc2cc(S(=O)(=O)Nc3cccc4c3CCCC4)ccc21`, the AC50 under setting [1] is 1 µM [falling, partial curve].
`O=C(Nc1ccc(Cl)cc1)Nc1ccccc1C(=O)NCc1ccco1`: the AC50 under setting [1] was 10 µM [falling, partial curve].
Still for that read-out and setting: as for `CCCCN(CC)C(=O)CSc1nc2n[nH]c(C)c2c(=N)n1-c1cccc(C)c1`, the figure is 39.8 µM [falling, single point].
Consider `COc1cccc2c1cc1c(=O)n(CC(=O)N3CCN(c4cccc(C(F)(F)F)c4)CC3)nc(C)n12`, for which, under setting [1], the AC50 was 1.58 µM [rising, partial curve].
Take `O=C(COc1ccccc1Cl)Nc1nnc(S(=O)(=O)N2CCCC2)s1`: the half-maximal activity concentration (AC50) under setting [1] was 1.58 µM [falling, full curve].
Still for that read-out and setting: with `O=C(Nc1cccc(C(F)(F)F)c1)c1cc(-c2ccc(Cl)s2)nc2ccccc12` the figure was 0.631 µM [rising, single point].
As to `O=C(Nc1nccs1)c1ccc(S(=O)(=O)NCc2cccs2)cc1`, the AC50 was 31.6 µM [falling, single point] (measured here: IkB-luc green channel) and 10 µM [falling, partial curve] (measured here: control luc red channel).
For `CC[C@H](C(=O)[C@H](C)[C@H](O)[C@H](C)CCc1ccc(C)c(O)c1C(=O)O)[C@H]1O[C@](CC)([C@@H]2CC[C@@](O)(CC)[C@H](C)O2)C[C@H]1C`, the AC50 under setting [1] is 3.98 µM [falling, full curve].
As for `COc1cccc2sc(NC(=O)CS(=O)(=O)c3ccc(C)cc3)nc12`, under setting [1], the AC50 is 12.6 µM [falling, partial curve].
On the same count and under the same terms, as for `O=C(CCCCn1c(=O)[nH]c2ccccc2c1=O)N1CCN(c2cccc(C(F)(F)F)c2)CC1`, the figure is 15.8 µM [falling, partial curve].
On the same count and under the same terms, with `COc1ccc2c(c1)C(C)=CC(C)(C)N2C(=O)CSc1nnc(-c2ccc(C)cc2)o1` the figure was 15.8 µM [falling, partial curve]; with `COc1ccc(OC)c(NC(=O)CCCc2nnc3n(C(C)C)c(=O)c4sccc4n23)c1`, 25.1 µM [rising, partial curve]; with `CCn1cc2nc(SCc3cccc(C(F)(F)F)c3)n(Cc3ccc(Cl)cc3)c(=O)c2n1`, 7.94 µM [falling, partial curve].
On to `Cc1ccc(Cl)cc1-n1nnc(-c2nsc(NC(=O)c3ccccc3Cl)n2)c1C`, for which the AC50 under setting [1] was 20 µM [falling, partial curve].
As to `COc1cc(C2CC(=O)N3CN(Cc4ccco4)CSC3=C2C#N)ccc1OCc1ccccc1` (configuration not stated), the AC50 under setting [1] was 12.6 µM [falling, partial curve].
With `Cc1ccc2oc(C(=O)Nc3ccc(S(=O)(=O)N4CCCC(C)C4)cc3)cc(=O)c2c1` (configuration not stated), the half-maximal activity concentration (AC50) under setting [1] is 20 µM [falling, partial curve].
As to `CCc1ccc(-n2c(=O)c3ccccc3n(CC(=O)NCCc3ccc(OC)c(OC)c3)c2=O)cc1`, under setting [1], the AC50 is 15.8 µM [falling, partial curve].
Consider `COc1ccc(Cl)cc1NC(=O)NCCn1c(=O)oc2ccc(C)cc21`, for which the AC50 under setting [1] is 25.1 µM [falling, partial curve].
The same measure, in the same setting: as for `Cn1c(=N)n(CC(=O)C(C)(C)C)c2ccccc21`, the figure is 3.98 µM [rising, full curve, poor fit]; as for `O=C(NCc1ccccc1)c1ccc(-c2ccccc2F)o1`, 12.6 µM [falling, single point]; as for `COc1ccc(OC)c(N(CC(=O)N2CCN(c3cc(Cl)ccc3C)CC2)S(C)(=O)=O)c1`, 15.8 µM [falling, partial curve].
Still for that read-out and setting: as for `Cc1ccc(N(CC(=O)N2CCN(c3cccc(Cl)c3)CC2)S(=O)(=O)c2c(C)noc2C)cc1`, the figure is 3.98 µM [falling, full curve, poor fit]; as for `O=C(NCc1ccco1)C1Cc2ccccc2CN1S(=O)(=O)c1ccccc1F` (configuration not stated), 7.94 µM [falling, partial curve]; as for `Cc1ccccc1NC(=O)c1c(NC(=O)c2ccccc2)sc2c1CCC2`, 0.501 µM [falling, full curve].
Turning to `CCN(CC)C(=O)c1sc2c(c1C)c(=O)n(-c1ccccc1)c(=O)n2Cc1c(C)cc(C)cc1C`, under setting [1], the AC50 is 31.6 µM [falling, single point].
